From patent publication US8124637B2, “Anthra [1, 2-d]imidazole-6,11-dione derivatives, preparation method and application thereof” (National Defense Medical Center, priority 2010, dated 2012)

Tested on: 60 kinds of different human cancer cells
Experiment: NCI 60-cell drug screen, one dose, whole panel
Type: cell-based
Details: over the tested cell lines, 1.00E−5 Molar
Method: In brief, cellular protein levels were determined after 48 hours of drug exposure by sulforhodamine B colorimetry.
The screening system in United State National Cancer Institute (NCI) consists of 60 kinds of different human cancer cells, which can be used to assay the growth-inhibiting ability or cell toxicity of a compound against various cancer and tumor at a certain concentration. The NCI had selected 6 compounds synthesized above, and performed cell toxicity assay against 60 kinds of cancer cell strains (Table 2) (DTP Human Tumor Cell Line Screen), in which each compound was assayed at a certain concentration to observe its inhibition ability or cell toxicity against various kinds of cancer and tumor.

Structure (SMILES) | Growth Percent, Delta [%] | Growth Percent, Range [%]
CN(CCc1ccccn1)Cc1nc2ccc3c(c2[nH]1)C(=O)c1ccccc1C3=O [CL07, 2-((N-methyl-2-(pyridin-2-yl)ethanamino)methyl)-1H-anthra[1,2-d]imidazole-6,11-dione] | 49.16 | 90.83
O=C1c2ccccc2C(=O)c2c1ccc1nc(CN3CCCCC3)[nH]c21 [CL16, 2-((piperidin-1-yl)methyl)-1H-anthra[1,2-d]imidazole-6,11-dione] | 52.58 | 96.91
O=C1c2ccccc2C(=O)c2c1ccc1nc(CN3CCN(c4ccccc4)CC3)[nH]c21 [CL27, 2-((4-phenylpiperazin-1-yl)methyl)-1H-anthra[1,2-d]imidazole-6,11-dione] | 47.04 | 135.50
O=C1c2ccccc2C(=O)c2c1ccc1nc(CN3CCN(c4ccccn4)CC3)[nH]c21 [CL28, 2-((4-(pyridin-2-yl)piperazin-1-yl)methyl)-1H-anthra[1,2-d]imidazole-6,11-dione] | 33.73 | 70.85
CN1CCN(Cc2nc3ccc4c(c3[nH]2)C(=O)c2ccccc2C4=O)CC1 [CL24, 2-((4-methylpiperazin-1-yl)methyl)-1H-anthra[1,2-d]imidazole-6,11-dione] | 73.29 | 121.39
CCN(CC)Cc1nc2ccc3c(c2[nH]1)C(=O)c1ccccc1C3=O [CL04, 2-((diethylamino)methyl)-1H-anthra[1,2-d]imidazole-6,11-dione] | 79.09 | 114.93

Some results come without the dose or concentration used.
